Test results as given in article PMC7865074.
Results are given in words; binding and its absence hold for the method and conditions named.

B1: PDZ domain-containing protein 4, PDZ domain (holdup construct) (domain or fragment, UniProt Q76G19 130-214)
chain: EVELYKSSHRDKLGLMVCYRTDDEEDLGIYVGEVNPNSIAAKDGRIREGDRIIQINGVDVQNREEAVAILSQEENTNISLLVARP
B2: 26S proteasome non-ATPase regulatory subunit 9, PDZ domain (holdup construct) (domain or fragment, UniProt O00233 108-195)
chain: QARDMAEAHKEAMSRKLGQSESQGPPRAFAKVNSISPGSPASIAGLQVDDEIVEFGSVNTQNFQSLHNIGSVVQHSEGKPLNVTVIRR
B3: Regulating synaptic membrane exocytosis protein 2, PDZ domain (holdup construct) (domain or fragment, UniProt Q9UQ26 668-754)
chain: DGSVPRDSGAMLGLKVVGGKMTESGRLCAFITKVKKGSLADTVGHLRPGDEVLEWNGRLLQGATFEEVYNIILESKPEPQVELVVSR
B4: T-lymphoma invasion and metastasis-inducing protein 2, PDZ domain (holdup construct) (domain or fragment, UniProt Q8IVF5 890-976)
chain: DVQLTKTGSVCDFGFAVTAQVDERQHLSRIFISDVLPDGLAYGEGLRKGNEIMTLNGEAVSDLDLKQMEALFSEKSVGLTLIARPPD
B5: PDZ domain-containing protein GIPC3, PDZ domain (holdup construct) (domain or fragment, UniProt Q8TF64 112-192)
chain: EVEVTKTEDALGLTITDNGAGYAFIKRIKEGSIINRIEAVCVGDSIEAINDHSIVGCRHYEVAKMLRELPKSQPFTLRLVQ
B6: MAGUK p55 subfamily member 5, PDZ domain (holdup construct) (domain or fragment, UniProt Q8N3R9 256-336)
chain: IVRIEKARDIPLGATVRNEMDSVIISRIVKGGAAEKSGLLHEGDEVLEINGIEIRGKDVNEVFDLLSDMHGTLTFVLIPSQ
B7: Protein piccolo, PDZ domain (holdup construct) (domain or fragment, UniProt Q9Y6V0 4496-4590)
chain: RIKITRDSKDHTVSGNGLGIRIVGGKEIPGHSGEIGAYIAKILPGGSAEQTGKLMEGMQVLEWNGIPLTSKTYEEVQSIISQQSGEAEICVRLDL
B8: PDZ and LIM domain protein 1, PDZ domain (holdup construct) (domain or fragment, UniProt O00151 3-85)
chain: TQQIDLQGPGPWGFRLVGGKDFEQPLAISRVTPGSKAALANLCIGDVITAIDGENTSNMTHLEAQNRIKGCTDNLTLTVARSE

Target: biotinylated WNV NS5 PBM peptide (West Nile virus)
Experiment: condition: BI < 0.15 (threshold for a significant interaction 0.2); holdup assay (automated high-throughput chromatography); biotinylated NS5 PBM peptide as bait against 259 human PDZ domains expressed in E. coli; read-out binding intensity (BI), mean of replicates; BI threshold 0.2 for a significant interaction

**Q.** For B1, which binding is on record?
**A.** no binding

**Q.** Which binding does the source give for B2 here?
**A.** no binding

**Q.** How did the binding turn out when B3 was run?
**A.** no binding

**Q.** B4 was tested. Which binding did it give?
**A.** no binding

**Q.** B5 was tested. Which binding did it give?
**A.** no binding

**Q.** With B6 as the binder, how does the binding read?
**A.** no binding

**Q.** For B7, which binding is on record?
**A.** no binding

**Q.** For B8, which binding is on record?
**A.** no binding
